# Test results reported in article PMC7819943, “Rice protein-binding microarrays: a tool to detect cis-acting elements near promoter regions in rice”.
# This is one part of the list.
# Target: T1, OsSMF1 (Oryza sativa, UniProt Q6ZLB0 1-436)
# T1 sequence: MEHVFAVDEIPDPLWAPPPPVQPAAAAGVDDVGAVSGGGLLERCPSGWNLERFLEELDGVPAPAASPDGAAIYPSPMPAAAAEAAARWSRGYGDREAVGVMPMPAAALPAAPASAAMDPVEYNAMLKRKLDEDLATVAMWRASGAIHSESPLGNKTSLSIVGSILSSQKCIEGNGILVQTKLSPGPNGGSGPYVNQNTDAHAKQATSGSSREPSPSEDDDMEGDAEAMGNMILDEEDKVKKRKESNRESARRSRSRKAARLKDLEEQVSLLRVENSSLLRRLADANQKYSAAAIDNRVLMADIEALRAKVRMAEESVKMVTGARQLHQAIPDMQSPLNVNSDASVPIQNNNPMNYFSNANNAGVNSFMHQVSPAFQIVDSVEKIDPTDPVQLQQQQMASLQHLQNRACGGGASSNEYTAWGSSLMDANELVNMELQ
# Assay: protein-binding microarray (RPBM); PBS, 2% BSA, 51.3 ng/ul salmon testes DNA, 50 uM zinc acetate, 200 nM TF, 25 C, 1 h; high values mean tight binding
# Settings: protein: recombinant; tags: N-terminal polyhistidine and DsRed monomer fusion (pET32a); chain copies: 2; label: CyDye5-dUTP incorporated in the synthesized complementary strand; 3' TTTTT single-stranded linker to array surface; dsDNA, one strand shown
# Outline: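 A custom Agilent array was converted to double-stranded form by primer extension with Cy5-dUTP and blocked with 2% BSA. Protein at 200 nM in PBS with 2% BSA, salmon testes DNA and 50 µM zinc acetate was applied for 1 h at 25 °C, followed by washing. The proteins were polyhistidine–DsRed N-terminal fusions of transcription factors, expressed in E. coli BL21-CodonPlus and Ni–NTA-purified. The binding signal is per-feature fluorescence intensity (arbitrary units) from an Axon 4000B scanner.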
row,Sequence,binding signal
1,GGCGAATCTTGCAGTCTCATTTTCTACCAGTCCTGGTTTGCGGAGTCACCTAGTGCAG,3380 fluorescence intensity (a.u.)
2,GAGCCCACGCCGCGCAGATCCACCTCTCTCCGCCCTGGATCGGAGTCACCTAGTGCAG,3450 fluorescence intensity (a.u.)
3,GAGCGCTGCGTGCGCGCGCGTCCGCGGCCACGCCATCCGCCGGAGTCACCTAGTGCAG,4600 fluorescence intensity (a.u.)
4,CGGTGACACTGCATGGCCAATTGAGTTAGTCATTGCCCATCGGAGTCACCTAGTGCAG,3670 fluorescence intensity (a.u.)
5,ACCCCACAACGCACGCGTGAGTTCGTGACGCGTCACGCCCCGGAGTCACCTAGTGCAG,7320 fluorescence intensity (a.u.)
6,CTTTCATCACCACCGGCCCCGTGGCCCCACGCGTCAGGTCCGGAGTCACCTAGTGCAG,4820 fluorescence intensity (a.u.)
7,TAATTTGGTCCATGCCATGCTGATAAAGCATGTTTCTTCTCGGAGTCACCTAGTGCAG,3880 fluorescence intensity (a.u.)
8,AGATTTGTCCATGTCATCACGAGTAAAAGTTTTATTTGTGCGGAGTCACCTAGTGCAG,7460 fluorescence intensity (a.u.)
9,TTTGATGTGCGTGCGTGCTGTACTTTGTAAGACGCAGCATCGGAGTCACCTAGTGCAG,3160 fluorescence intensity (a.u.)
10,TGGTGGTGGGTGAGTGTTGGGTGCGCAGGCTCTGGGGTAACGGAGTCACCTAGTGCAG,3430 fluorescence intensity (a.u.)
11,CGGCTCCACCTCGCGCCCTGACCTGACGCGGATAGGTTTTCGGAGTCACCTAGTGCAG,4630 fluorescence intensity (a.u.)
12,TTGGAAGGAAGGCTTGGAAGATTTGTGATGGATGACAAGGCGGAGTCACCTAGTGCAG,3950 fluorescence intensity (a.u.)
13,GGCACCTCTCTCTCCGGTGAATCTCGCGTCCACGTTGGTTCGGAGTCACCTAGTGCAG,22500 fluorescence intensity (a.u.)
14,TTTTGTGGAAGCGTGTGGACACGTGGTGGGCCCTGGGCCTCGGAGTCACCTAGTGCAG,8630 fluorescence intensity (a.u.)
15,CTCCCGGCAGAAGCAAGCGGGGCATGTGCGGCCGTCCGGCCGGAGTCACCTAGTGCAG,3600 fluorescence intensity (a.u.)
16,AGCGCTGCCCCGCCACGGTGGCAGGAGGACTGGCGCCGTCCGGAGTCACCTAGTGCAG,5020 fluorescence intensity (a.u.)
17,TCCATTGGGCATCCATAGTCCATGCACCATGATGGAGAGGCGGAGTCACCTAGTGCAG,4750 fluorescence intensity (a.u.)
18,TTGTCTGTACTGTTAGCATGAGTCACTTGTGCATGTTTAGCGGAGTCACCTAGTGCAG,6730 fluorescence intensity (a.u.)
19,TTCTAATTACTATTTAAGCTTATCCTAATTAACTCACATGCGGAGTCACCTAGTGCAG,3230 fluorescence intensity (a.u.)
20,GTATAGATGACGGAAGCGGACTTCGTTTCGTTTTGTTTGGCGGAGTCACCTAGTGCAG,3400 fluorescence intensity (a.u.)
21,TTACTAGAGCTAATGAAGGCATGCCAAATTTGACATCATGCGGAGTCACCTAGTGCAG,3350 fluorescence intensity (a.u.)

row,Sequence,binding signal
1,TTTACGTTTGCCTGCATCTTTCTGACCTGTATACTAATTTCGGAGTCACCTAGTGCAG,5280 fluorescence intensity (a.u.)
2,GCTCAGGTTCTGCATTATTGGCGCAGTACGTACGTGTTCACGGAGTCACCTAGTGCAG,3760 fluorescence intensity (a.u.)
3,TTTGCCATGTTTGATGTGGCTCAGATCCACTTACTTCGCGCGGAGTCACCTAGTGCAG,3870 fluorescence intensity (a.u.)
4,ACAAAAGAGTAGATATGCCACATCACTAGCAGTTAGTCATCGGAGTCACCTAGTGCAG,13400 fluorescence intensity (a.u.)
5,GAAGCTGAGCGACGCCACGGCCTGCACCACCACCTGGTCGCGGAGTCACCTAGTGCAG,3430 fluorescence intensity (a.u.)
6,CTCTGTTCACTCCACCAAACTCCTTCGATTGATCAAATGACGGAGTCACCTAGTGCAG,47200 fluorescence intensity (a.u.)
7,AAAGGCCACGCCTTTGCCTCGTCAGTTATCTCTTCGTTTCCGGAGTCACCTAGTGCAG,5220 fluorescence intensity (a.u.)
8,ACAAACGTCCACAGACTTCCACAACACGTACACACTCATCCGGAGTCACCTAGTGCAG,3350 fluorescence intensity (a.u.)
9,CGCTGCGGCTGCAGCAGCAAGCAGCATGCTCAGCTGCATGCGGAGTCACCTAGTGCAG,3380 fluorescence intensity (a.u.)
10,GGGCGGAGCTGGTGCGGAGGGTGGCGTGGCAGCTCGAGGACGGAGTCACCTAGTGCAG,5260 fluorescence intensity (a.u.)
11,TCATCTCGAAGCTGGTGACGGAGCGGCGGCACACCGACTTCGGAGTCACCTAGTGCAG,34400 fluorescence intensity (a.u.)
12,AGTTAAACATACTAGCTCTAGAGTGTTGTATAAATTGGAGCGGAGTCACCTAGTGCAG,3290 fluorescence intensity (a.u.)
13,AGCCTGTCTCCGCGTTGCACGAATCTTGATGCGATTTGGACGGAGTCACCTAGTGCAG,29000 fluorescence intensity (a.u.)
14,TCCCTTGTGTCACCTATGACTTTCATCTCAATACTCTCTCCGGAGTCACCTAGTGCAG,3170 fluorescence intensity (a.u.)
15,CAGAATTGTAATTCTGGGCTTTACGTGGGCCGTAATTGGACGGAGTCACCTAGTGCAG,3790 fluorescence intensity (a.u.)
16,GCACTTTTGTGCAGGCCACGGGCGTCCCCATCACCACCATCGGAGTCACCTAGTGCAG,3720 fluorescence intensity (a.u.)
17,GAGAAATTTGCGCATGGAAGCACCGGAATTCCACGTTATCCGGAGTCACCTAGTGCAG,4300 fluorescence intensity (a.u.)
18,TTTCTCTCCGTCTCGTCTCCTACTCCCTCTTCTCTTCTCCCGGAGTCACCTAGTGCAG,29700 fluorescence intensity (a.u.)
19,GTGAATTCAGTCTGACCTGTGGTGGGGCCATCGCATGCCACGGAGTCACCTAGTGCAG,4090 fluorescence intensity (a.u.)
20,AAAGTTACGCGTTACTATACGTGTCGAGATGTACAAAAGTCGGAGTCACCTAGTGCAG,3880 fluorescence intensity (a.u.)
21,TAGCGCTCCATGTCCATGACGTGTGCATGGCCACCGCAGACGGAGTCACCTAGTGCAG,12900 fluorescence intensity (a.u.)

# Two entries drawn at random from those above, as already listed:
row,Sequence,binding signal
14,TCCCTTGTGTCACCTATGACTTTCATCTCAATACTCTCTCCGGAGTCACCTAGTGCAG,3170 fluorescence intensity (a.u.)
20,AAAGTTACGCGTTACTATACGTGTCGAGATGTACAAAAGTCGGAGTCACCTAGTGCAG,3880 fluorescence intensity (a.u.)
